# Test results published in article PMC6220755.
# The chains behind the UniProt entries cited, without tags or fusion partners. Residues count along the entry.
# UniProt P13109, residues 10-154: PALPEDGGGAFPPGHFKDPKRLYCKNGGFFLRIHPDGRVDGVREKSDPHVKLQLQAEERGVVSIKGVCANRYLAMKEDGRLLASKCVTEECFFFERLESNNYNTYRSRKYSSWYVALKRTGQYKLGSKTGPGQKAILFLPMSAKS
# UniProt Q07021, residues 74-282: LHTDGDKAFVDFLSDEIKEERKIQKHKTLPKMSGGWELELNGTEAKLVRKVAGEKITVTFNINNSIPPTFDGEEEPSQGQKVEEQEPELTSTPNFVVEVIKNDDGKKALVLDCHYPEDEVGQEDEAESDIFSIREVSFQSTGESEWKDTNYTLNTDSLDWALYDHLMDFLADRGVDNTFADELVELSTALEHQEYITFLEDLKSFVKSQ
# Results are given in words; binding and its absence hold for the method and conditions named. In cells and extracts the contact can be indirect. A yes stands for co-enrichment or nearness to the bait. Other partners may have been found. No binding means not detected with the bait.
# Target: lo‐FGF2 (18‐kDa low molecular weight FGF2) used for affinity chromatography (UniProt P13109)
# Assay: affinity purification with mass spectrometry; affinity chromatography with hi‐FGF2 and lo‐FGF2, nuclear and cytosolic fractions; bands of 21 to 45 kDa excised, HPLC‐MS; told as 'our previous study', shown in Figure S2
substance,measurement,value
C1QBP found by affinity chromatography and mass spectrometry (from UniProt Q07021 74-282),binding,no binding
